Measurements from patent publication US20260055096A1, “AZOLE PESTICIDAL COMPOUNDS” (BASF SE, priority 2022, published 2026).
Some of these results come from one statement about several compounds together.

What was measured:
Assay type in all cases: in vivo
[1] = test system: Southern armyworm (Spodoptera eridania), 2nd instar larvae; test: Example B.7: Action on southern armyworm (Spodoptera eridania), 2nd instar larvae on sprayed lima bean plants; conditions: 300 ppm; 4 days after treatment
[2] = test system: tobacco budworm (Heliothis virescens); test: Example B.5: Action on tobacco budworm (Heliothis virescens), egg and larval mortality on insect diet; conditions: 800 ppm; egg and larval mortality after 5 days
[3] = test system: Orchid thrips (Dichromothrips corbetti); test: Example B.2: Action on orchid thrips (Dichromothrips corbetti), floral-immersion technique; conditions: 300 ppm; 72 hours after treatment
[4] = test system: yellow fever mosquito (Aedes aegypti); conditions: 800 ppm; larval mortality after 2 days
[5] = test system: Diamond back moth (Plutella xylostella); test: Example B.6: Action on diamond back moth (Plutella xylostella), cabbage leaf dip, 3rd instar larvae; conditions: 300 ppm; 72 hours after treatment
Method: The active compound is dissolved at the desired concentration in a mixture of 1:1 (v/v) distilled water: acetone. Surfactant (Kinetic® HV) is added at a rate of 0.01% (v/v). The test solution is prepared at the day of use.
Leaves of cabbage were dipped in test solution and air-dried. Treated leaves were placed in petri dishes lined with moist filter paper and inoculated with ten 3rd instar larvae. Mortality was recorded 72 hours after treatment. Feeding damages were also recorded using a scale of 0-100%.

[6] = test system: boll weevil (Anthonomus grandis); test: Example B.3: Action on boll weevil (Anthonomus grandis), egg and larval mortality on insect diet; conditions: 800 ppm; egg and larval mortality after 5 days

SMILES	mortality in comparison with untreated controls [1]	mortality in comparison with untreated controls [2]	mortality in comparison with untreated controls [3]	mortality in comparison with untreated controls [4]	mortality in comparison with untreated controls [5]	mortality in comparison with untreated controls [6]
Cc1ccc(C(C)C)c(N2C(=O)C(C)SC2=NC(=O)Nc2ccc(-c3nn(C)c(NC(=O)c4ccc(OC(F)(F)F)cc4)c3C)cc2)c1 (racemic) [Example C-22]	at least 75%	at least 75%	at least 75%	at least 50%	at least 75%	at least 75%
Cc1ccc(C(F)(F)F)c(N2C(=O)CSC2=NC(=O)Nc2ccc(-c3nn(C)c(NC(=O)c4ccc(C(F)(F)F)cc4)c3C)cc2)c1 [Example C-9]		at least 75%	at least 75%	at least 50%	at least 75%	at least 75%
Cc1ccc(C(F)(F)F)c(N2C(=O)CSC2=NC(=O)Nc2ccc(-c3nn(C)c(NC(=O)c4ccc(C(F)(F)F)cc4)c3C)cc2C)c1 [Example C-10]	at least 75%	at least 75%	at least 75%	at least 50%	at least 75%	at least 75%
Cc1ccc(C(C)C)c(N2C(=O)CSC2=NC(=O)Nc2ccc(-c3nn(C)c(NC(=O)c4ccc(C(F)(F)F)cc4)c3C)cc2C)c1 [Example C-11]	at least 75%	at least 75%	at least 75%	at least 50%	at least 75%	at least 75%
Cc1ccc(C(C)C)c(N2C(=O)CSC2=NC(=O)Nc2ccc(-c3nn(C)c(NC(=O)c4ccc(C(F)(F)F)cc4)c3C)cc2F)c1 [Example C-13]	at least 75%	at least 75%	at least 75%	at least 50%	at least 75%	at least 75%
Cc1ccc(C(F)(F)F)c(N2C(=O)CSC2=NC(=O)Nc2ccc(-c3nn(C)c(NC(=O)c4ccc(C(F)(F)F)cc4)c3C)cc2F)c1 [Example C-14]	at least 75%	at least 75%	at least 75%	at least 50%	at least 75%	at least 75%
Cc1c(-c2ccc(NC(=O)/N=C3\SCC(=O)N3c3cc(N(C)C)ccc3C(C)C)cc2)nn(C)c1NC(=O)c1ccc(C(F)(F)F)cc1 [Example C-15]	at least 75%	at least 75%	at least 75%	at least 50%	at least 75%	at least 75%
Cc1ccc(C(C)C)c(N2C(=O)CS/C2=N\C(=O)Nc2ccc(-c3nc(N(C)C(=O)c4ccc(OC(F)(F)F)cc4)n(C)n3)cc2)c1 [Example C-16]	at least 75%	at least 75%	at least 75%	at least 50%	at least 75%	at least 75%
Cc1ccc(C(F)(F)F)c(N2C(=O)CSC2=NC(=O)Nc2ccc(-c3nc(N(C)C(=O)c4ccc(OC(F)(F)F)cc4)n(C)n3)cc2)c1 [Example C-17]	at least 75%	at least 75%	at least 75%	at least 50%	at least 75%	at least 75%
CC(C)c1ccc(N(C)C)cc1N1C(=O)CSC1=NC(=O)Nc1ccc(-c2nc(N(C)C(=O)c3ccc(OC(F)(F)F)cc3)n(C)n2)cc1 [Example C-18]	at least 75%	at least 75%	at least 75%	at least 50%	at least 75%	at least 75%
CC(C)c1ccc(N(C)C)cc1N1C(=O)CSC1=NC(=O)Nc1ccc(-c2nc(NC(=O)c3ccc(OC(F)(F)F)cc3)n(C)n2)cc1 [Example C-20]	at least 75%	at least 75%	at least 75%		at least 75%	at least 75%
CCOC(=O)OCS/C(=N\C(=O)Nc1ccc(-c2nn(C)c(NC(=O)c3ccc(C(F)(F)F)cc3)c2C)cc1)Nc1cc(C)ccc1C(C)C [Example C-21]	at least 75%	at least 75%	at least 75%	at least 50%	at least 75%	at least 75%
Cc1c(-c2ccc(NC(=O)N=C3SCC(=O)N3c3cc(C4CC4)ccc3C(C)C)cc2)nn(C)c1NC(=O)c1ccc(C(F)(F)F)cc1 [Example C-24]	at least 75%	at least 75%	at least 75%	at least 50%	at least 75%	at least 75%
Cc1ccc(COCC(F)(F)F)c(N2C(=O)CSC2=NC(=O)Nc2ccc(-c3nn(C)c(NC(=O)c4ccc(C(F)(F)F)cc4)c3C)cc2)c1 [Example C-25]	at least 75%	at least 75%	at least 75%	at least 50%	at least 75%	at least 75%
CC(C)c1ccc(C2CC2)cc1N1C(=O)CSC1=NC(=O)Nc1ccc(-c2nc(NC(=O)c3ccc(OC(F)(F)F)cc3)n(C)n2)cc1 [Example C-26]	at least 75%	at least 75%	at least 75%		at least 75%	at least 75%
Cc1ccc(COCC(F)(F)F)c(N2C(=O)CS/C2=N\C(=O)Nc2ccc(-c3nc(NC(=O)c4ccc(OC(F)(F)F)cc4)n(C)n3)cc2)c1 [Example C-27]	at least 75%	at least 75%	at least 75%	at least 50%	at least 75%	at least 75%
Cc1ccc(C(C)C)c(N2C(=O)CS/C2=N\C(=O)Nc2ccc(-c3nn(C)c(N(C)C(=O)c4ccc(OC(F)(F)F)cc4)c3C)cc2)c1 [Example C-28]	at least 75%	at least 75%	at least 75%	at least 50%	at least 75%	at least 75%
CC(C)c1ccc(C2CC2)cc1N1C(=O)CS/C1=N\C(=O)Nc1ccc(-c2nc(N(C)C(=O)c3ccc(OC(F)(F)F)cc3)n(C)n2)cc1 [Example C-30]	at least 75%	at least 75%	at least 75%	at least 50%	at least 75%	at least 75%
Cc1ccc(C(C)C)c(N2C(=O)CS/C2=N\C(=O)Nc2ccc(-c3nn(C)c(NC(=O)c4ccc(OC(F)(F)F)cc4)c3C)cc2)c1 [Example C-31]	at least 75%	at least 75%	at least 75%	at least 50%	at least 75%	at least 75%
Cc1ccc(C(C)C)c(NC(=S)NC(=O)Nc2ccc(-c3nc(N(C)C(=O)c4ccc(OC(F)(F)F)cc4)n(C)n3)cc2)c1 [Example C-34]	at least 75%	at least 75%	at least 75%	at least 50%	at least 75%	at least 75%
